# In the supplement of paper PMC8728848:
# Some of the results follow.
# B1: CREG (Mus musculus), O88668 (protein)
# chain: MAARAPELARSLLAALLAPALVALLVSPASGRGGRDHGDWDVDRRLPPLPPREDGPRVARFVTHVSDWGSLATISTIKEVRGWPFADIISISDGPPGEGTGEPYMYLSPLQQAVSDLQENPEATLTMSLAQTVYCRNHGFDPQSPLCVHIMMSGTVTKVNKTEEDYARDSLFVRHPEMKHWPSSHNWFFAKLKISRIWVLDYFGGPKVVTPEEYFNVTLQ
# How the values were obtained:
# Experiment in all cases: glycan array binding signal (z-score within array); higher = stronger binding
# Conditions in all cases: glycan notation: IUPAC condensed, linker removed
# [1] = target: Neu5Ac(a2-3)Gal(b1-3)GalNAc(b1-3)Gal(a1-4)Gal(b1-4)Glc
# Method in brief: (§1)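 The binding signal is a Z-score computed within each array and averaged over linkers. Arrays of the same protein sequence at different concentrations or buffers were also averaged together. Data originate from 3228 arrays in the Consortium for Functional Glycomics database, kept only where the protein sequence was available.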
# [2] = target: Neu5Ac(a2-3)Gal(b1-3)GalNAc(b1-4)[Neu5Ac(a2-3)]Gal(b1-4)Glc
# Method in brief: as §1
# [3] = target: Neu5Ac(a2-3)Gal(b1-3)GalNAc6S
# Method in brief: as §1
# [4] = target: Neu5Ac(a2-3)Gal(b1-3)GlcNAc
# Method in brief: as §1
# [5] = target: Neu5Ac(a2-3)Gal(b1-3)GlcNAc(b1-2)Man(a1-3)[Neu5Ac(a2-3)Gal(b1-3)GlcNAc(b1-2)Man(a1-6)]Man(b1-4)GlcNAc(b1-4)GlcNAc
# Method in brief: as §1
# [6] = target: Neu5Ac(a2-3)Gal(b1-3)GlcNAc(b1-3)Gal(b1-3)GlcNAc
# Method in brief: as §1
# [7] = target: Neu5Ac(a2-3)Gal(b1-3)GlcNAc(b1-3)Gal(b1-4)GlcNAc
# Method in brief: as §1
# [8] = target: Neu5Ac(a2-3)Gal(b1-3)GlcNAc(b1-3)GalNAc
# Method in brief: as §1
# [9] = target: Neu5Ac(a2-3)Gal(b1-3)GlcNAc6S
# Method in brief: as §1
# [10] = target: Neu5Ac(a2-3)Gal(b1-3)[Fuc(a1-4)]GlcNAc
# Method in brief: as §1
# [11] = target: Neu5Ac(a2-3)Gal(b1-3)[Fuc(a1-4)]GlcNAc(b1-3)Gal(b1-3)[Fuc(a1-4)]GlcNAc
# Method in brief: as §1
# [12] = target: Neu5Ac(a2-3)Gal(b1-3)[Fuc(a1-4)]GlcNAc(b1-3)Gal(b1-4)[Fuc(a1-3)]GlcNAc
# Method in brief: as §1
# [13] = target: Neu5Ac(a2-3)Gal(b1-3)[Neu5Ac(a2-3)Gal(b1-4)]GlcNAc
# Method in brief: as §1
# [14] = target: Neu5Ac(a2-3)Gal(b1-3)[Neu5Ac(a2-6)]GalNAc
# Method in brief: as §1
# Neu5Ac(a2-3)Gal(b1-4)Glc = target: Neu5Ac(a2-3)Gal(b1-4)Glc
# Method in brief: as §1
# [15] = target: Neu5Ac(a2-3)Gal(b1-4)GlcNAc
# Method in brief: as §1
# [16] = target: Neu5Ac(a2-3)Gal(b1-4)GlcNAc(b1-2)Man(a1-3)[GlcNAc(b1-2)Man(b1-4)GlcNAc(b1-2)Man(a1-6)]Man(b1-4)GlcNAc(b1-4)GlcNAc
# Method in brief: as §1
# [17] = target: Neu5Ac(a2-3)Gal(b1-4)GlcNAc(b1-2)Man(a1-3)[Neu5Ac(a2-6)Gal(b1-4)GlcNAc(b1-2)Man(a1-6)]Man(b1-4)GlcNAc(b1-4)GlcNAc
# Method in brief: as §1
# [18] = target: Neu5Ac(a2-3)Gal(b1-4)GlcNAc(b1-3)Gal(b1-3)GlcNAc
# Method in brief: as §1
# [19] = target: Neu5Ac(a2-3)Gal(b1-4)GlcNAc(b1-3)Gal(b1-4)GlcNAc
# Method in brief: as §1
# [20] = target: Neu5Ac(a2-3)Gal(b1-4)GlcNAc(b1-3)Gal(b1-4)GlcNAc(b1-3)Gal(b1-4)GlcNAc
# Method in brief: as §1
# [21] = target: Neu5Ac(a2-3)Gal(b1-4)GlcNAc(b1-3)Gal(b1-4)[Fuc(a1-3)]GlcNAc
# Method in brief: as §1
# [22] = target: Neu5Ac(a2-3)Gal(b1-4)GlcNAc(b1-3)GalNAc
# Method in brief: as §1
# [23] = target: Neu5Ac(a2-3)Gal(b1-4)GlcNAc(b1-6)[Gal(b1-3)]GalNAc
# Method in brief: as §1
# [24] = target: Neu5Ac(a2-3)Gal(b1-4)GlcNAc(b1-6)[Neu5Ac(a2-3)Gal(b1-3)]GalNAc
# Method in brief: as §1
# [25] = target: Neu5Ac(a2-3)Gal(b1-4)GlcNAc6S
# Method in brief: as §1
# [26] = target: Neu5Ac(a2-3)Gal(b1-4)[Fuc(a1-3)]GlcNAc
# Method in brief: as §1
# [27] = target: Neu5Ac(a2-3)Gal(b1-4)[Fuc(a1-3)]GlcNAc(b1-3)Gal
# Method in brief: as §1
# [28] = target: Neu5Ac(a2-3)Gal(b1-4)[Fuc(a1-3)]GlcNAc(b1-3)Gal(b1-4)GlcNAc
# Method in brief: as §1
# [29] = target: Neu5Ac(a2-3)Gal(b1-4)[Fuc(a1-3)]GlcNAc(b1-3)Gal(b1-4)[Fuc(a1-3)]GlcNAc(b1-3)Gal(b1-4)[Fuc(a1-3)]GlcNAc
# Method in brief: as §1
# [30] = target: Neu5Ac(a2-3)Gal(b1-4)[Fuc(a1-3)]GlcNAc(b1-3)GalNAc
# Method in brief: as §1
# [31] = target: Neu5Ac(a2-3)Gal(b1-4)[Fuc(a1-3)]GlcNAc(b1-6)[Gal(b1-3)]GalNAc
# Method in brief: as §1
# [32] = target: Neu5Ac(a2-3)Gal(b1-4)[Fuc(a1-3)]GlcNAc(b1-6)[Neu5Ac(a2-3)Gal(b1-3)]GalNAc
# Method in brief: as §1
# [33] = target: Neu5Ac(a2-3)Gal(b1-4)[Fuc(a1-3)]GlcNAc6S
# Method in brief: as §1
# [34] = target: Neu5Ac(a2-3)Gal6S(b1-4)GlcNAc
# Method in brief: as §1
# [35] = target: Neu5Ac(a2-3)Gal6S(b1-4)[Fuc(a1-3)]GlcNAc
# Method in brief: as §1
# Neu5Ac(a2-3)GalNAc = target: Neu5Ac(a2-3)GalNAc
# Method in brief: as §1
# [36] = target: Neu5Ac(a2-3)GalNAc(b1-4)GlcNAc
# Method in brief: as §1
# [37] = target: Neu5Ac(a2-3)[GalNAc(b1-4)]Gal(b1-4)Glc
# Method in brief: as §1
# [38] = target: Neu5Ac(a2-3)[GalNAc(b1-4)]Gal(b1-4)GlcNAc
# Method in brief: as §1
# [39] = target: Neu5Ac(a2-3)[GalNAc(b1-4)]Gal(b1-4)GlcNAc(b1-3)GalNAc
# Method in brief: as §1
# [40] = target: Neu5Ac(a2-3)[Neu5Ac(a2-6)]GalNAc
# Method in brief: as §1
binder,measurement,setting,value
B1,glycan array binding signal (z-score),[1],-0.096
same,glycan array binding signal (z-score),[2],-0.064
same,glycan array binding signal (z-score),[3],0.46
same,glycan array binding signal (z-score),[4],-0.361
same,glycan array binding signal (z-score),[5],-1.18
same,glycan array binding signal (z-score),[6],-0.054
same,glycan array binding signal (z-score),[7],0.058
same,glycan array binding signal (z-score),[8],-0.483
same,glycan array binding signal (z-score),[9],1.12
same,glycan array binding signal (z-score),[10],-0.737
same,glycan array binding signal (z-score),[11],1.44
same,glycan array binding signal (z-score),[12],-0.584
same,glycan array binding signal (z-score),[13],0.084
same,glycan array binding signal (z-score),[14],1.58
same,glycan array binding signal (z-score),Neu5Ac(a2-3)Gal(b1-4)Glc,-0.215
same,glycan array binding signal (z-score),[15],-0.79
same,glycan array binding signal (z-score),[16],0.268
same,glycan array binding signal (z-score),[17],1.86
same,glycan array binding signal (z-score),[18],-0.268
same,glycan array binding signal (z-score),[19],0.262
same,glycan array binding signal (z-score),[20],-0.483
same,glycan array binding signal (z-score),[21],-0.462
same,glycan array binding signal (z-score),[22],1.43
same,glycan array binding signal (z-score),[23],-0.611
same,glycan array binding signal (z-score),[24],-0.781
same,glycan array binding signal (z-score),[25],1.38
same,glycan array binding signal (z-score),[26],-0.847
same,glycan array binding signal (z-score),[27],-0.238
same,glycan array binding signal (z-score),[28],-0.348
same,glycan array binding signal (z-score),[29],-0.789
same,glycan array binding signal (z-score),[30],3.4
same,glycan array binding signal (z-score),[31],2.02
same,glycan array binding signal (z-score),[32],4.66
same,glycan array binding signal (z-score),[33],-0.731
same,glycan array binding signal (z-score),[34],0.521
same,glycan array binding signal (z-score),[35],0.826
same,glycan array binding signal (z-score),Neu5Ac(a2-3)GalNAc,0.462
same,glycan array binding signal (z-score),[36],-1.96
same,glycan array binding signal (z-score),[37],0.028
same,glycan array binding signal (z-score),[38],-1.05
same,glycan array binding signal (z-score),[39],-0.922
same,glycan array binding signal (z-score),[40],0.028

# Random excerpt: 2 entries already listed, in no set order.
binder,measurement,setting,value
B1,glycan array binding signal (z-score),[2],-0.064
same,glycan array binding signal (z-score),[10],-0.737
